Data as given in the supplement of paper PMC11006884.
The list shows a part of the results, in another mix than the full data. This is a noisy data set.

Chains of the proteins cited; added tags and fusions are not shown. Lines headed by an entry give the natural chain unless they say otherwise; changes in a name come on top.
UniProt P04075: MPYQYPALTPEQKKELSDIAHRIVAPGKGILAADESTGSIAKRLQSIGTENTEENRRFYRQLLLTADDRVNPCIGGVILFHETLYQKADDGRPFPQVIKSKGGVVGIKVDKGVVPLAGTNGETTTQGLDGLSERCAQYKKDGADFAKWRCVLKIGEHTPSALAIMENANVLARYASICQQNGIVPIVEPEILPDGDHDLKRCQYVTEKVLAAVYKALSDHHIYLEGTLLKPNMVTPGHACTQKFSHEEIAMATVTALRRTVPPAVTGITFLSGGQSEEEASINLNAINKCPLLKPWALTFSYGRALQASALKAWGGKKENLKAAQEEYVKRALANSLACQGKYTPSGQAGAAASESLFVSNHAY
UniProt P05165: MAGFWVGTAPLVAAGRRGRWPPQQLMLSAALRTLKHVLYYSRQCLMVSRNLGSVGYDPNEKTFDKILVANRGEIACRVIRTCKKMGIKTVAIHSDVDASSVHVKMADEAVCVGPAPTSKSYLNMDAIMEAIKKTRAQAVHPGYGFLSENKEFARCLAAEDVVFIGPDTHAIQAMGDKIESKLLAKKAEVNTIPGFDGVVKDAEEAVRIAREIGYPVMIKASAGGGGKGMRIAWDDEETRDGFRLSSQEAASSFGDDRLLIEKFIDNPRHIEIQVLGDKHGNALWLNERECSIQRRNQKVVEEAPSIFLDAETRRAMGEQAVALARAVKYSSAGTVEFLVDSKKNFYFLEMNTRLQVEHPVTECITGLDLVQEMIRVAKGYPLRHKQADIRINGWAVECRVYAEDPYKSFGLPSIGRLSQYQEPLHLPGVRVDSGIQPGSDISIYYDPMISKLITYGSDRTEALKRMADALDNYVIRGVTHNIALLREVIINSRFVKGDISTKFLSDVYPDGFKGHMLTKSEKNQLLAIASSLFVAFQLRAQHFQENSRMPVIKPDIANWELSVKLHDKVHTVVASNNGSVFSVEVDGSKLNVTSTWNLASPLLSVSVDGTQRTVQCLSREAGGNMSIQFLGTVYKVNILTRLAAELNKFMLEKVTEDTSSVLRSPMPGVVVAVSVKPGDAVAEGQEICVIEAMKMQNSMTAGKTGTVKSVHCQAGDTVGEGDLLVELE
UniProt O95714: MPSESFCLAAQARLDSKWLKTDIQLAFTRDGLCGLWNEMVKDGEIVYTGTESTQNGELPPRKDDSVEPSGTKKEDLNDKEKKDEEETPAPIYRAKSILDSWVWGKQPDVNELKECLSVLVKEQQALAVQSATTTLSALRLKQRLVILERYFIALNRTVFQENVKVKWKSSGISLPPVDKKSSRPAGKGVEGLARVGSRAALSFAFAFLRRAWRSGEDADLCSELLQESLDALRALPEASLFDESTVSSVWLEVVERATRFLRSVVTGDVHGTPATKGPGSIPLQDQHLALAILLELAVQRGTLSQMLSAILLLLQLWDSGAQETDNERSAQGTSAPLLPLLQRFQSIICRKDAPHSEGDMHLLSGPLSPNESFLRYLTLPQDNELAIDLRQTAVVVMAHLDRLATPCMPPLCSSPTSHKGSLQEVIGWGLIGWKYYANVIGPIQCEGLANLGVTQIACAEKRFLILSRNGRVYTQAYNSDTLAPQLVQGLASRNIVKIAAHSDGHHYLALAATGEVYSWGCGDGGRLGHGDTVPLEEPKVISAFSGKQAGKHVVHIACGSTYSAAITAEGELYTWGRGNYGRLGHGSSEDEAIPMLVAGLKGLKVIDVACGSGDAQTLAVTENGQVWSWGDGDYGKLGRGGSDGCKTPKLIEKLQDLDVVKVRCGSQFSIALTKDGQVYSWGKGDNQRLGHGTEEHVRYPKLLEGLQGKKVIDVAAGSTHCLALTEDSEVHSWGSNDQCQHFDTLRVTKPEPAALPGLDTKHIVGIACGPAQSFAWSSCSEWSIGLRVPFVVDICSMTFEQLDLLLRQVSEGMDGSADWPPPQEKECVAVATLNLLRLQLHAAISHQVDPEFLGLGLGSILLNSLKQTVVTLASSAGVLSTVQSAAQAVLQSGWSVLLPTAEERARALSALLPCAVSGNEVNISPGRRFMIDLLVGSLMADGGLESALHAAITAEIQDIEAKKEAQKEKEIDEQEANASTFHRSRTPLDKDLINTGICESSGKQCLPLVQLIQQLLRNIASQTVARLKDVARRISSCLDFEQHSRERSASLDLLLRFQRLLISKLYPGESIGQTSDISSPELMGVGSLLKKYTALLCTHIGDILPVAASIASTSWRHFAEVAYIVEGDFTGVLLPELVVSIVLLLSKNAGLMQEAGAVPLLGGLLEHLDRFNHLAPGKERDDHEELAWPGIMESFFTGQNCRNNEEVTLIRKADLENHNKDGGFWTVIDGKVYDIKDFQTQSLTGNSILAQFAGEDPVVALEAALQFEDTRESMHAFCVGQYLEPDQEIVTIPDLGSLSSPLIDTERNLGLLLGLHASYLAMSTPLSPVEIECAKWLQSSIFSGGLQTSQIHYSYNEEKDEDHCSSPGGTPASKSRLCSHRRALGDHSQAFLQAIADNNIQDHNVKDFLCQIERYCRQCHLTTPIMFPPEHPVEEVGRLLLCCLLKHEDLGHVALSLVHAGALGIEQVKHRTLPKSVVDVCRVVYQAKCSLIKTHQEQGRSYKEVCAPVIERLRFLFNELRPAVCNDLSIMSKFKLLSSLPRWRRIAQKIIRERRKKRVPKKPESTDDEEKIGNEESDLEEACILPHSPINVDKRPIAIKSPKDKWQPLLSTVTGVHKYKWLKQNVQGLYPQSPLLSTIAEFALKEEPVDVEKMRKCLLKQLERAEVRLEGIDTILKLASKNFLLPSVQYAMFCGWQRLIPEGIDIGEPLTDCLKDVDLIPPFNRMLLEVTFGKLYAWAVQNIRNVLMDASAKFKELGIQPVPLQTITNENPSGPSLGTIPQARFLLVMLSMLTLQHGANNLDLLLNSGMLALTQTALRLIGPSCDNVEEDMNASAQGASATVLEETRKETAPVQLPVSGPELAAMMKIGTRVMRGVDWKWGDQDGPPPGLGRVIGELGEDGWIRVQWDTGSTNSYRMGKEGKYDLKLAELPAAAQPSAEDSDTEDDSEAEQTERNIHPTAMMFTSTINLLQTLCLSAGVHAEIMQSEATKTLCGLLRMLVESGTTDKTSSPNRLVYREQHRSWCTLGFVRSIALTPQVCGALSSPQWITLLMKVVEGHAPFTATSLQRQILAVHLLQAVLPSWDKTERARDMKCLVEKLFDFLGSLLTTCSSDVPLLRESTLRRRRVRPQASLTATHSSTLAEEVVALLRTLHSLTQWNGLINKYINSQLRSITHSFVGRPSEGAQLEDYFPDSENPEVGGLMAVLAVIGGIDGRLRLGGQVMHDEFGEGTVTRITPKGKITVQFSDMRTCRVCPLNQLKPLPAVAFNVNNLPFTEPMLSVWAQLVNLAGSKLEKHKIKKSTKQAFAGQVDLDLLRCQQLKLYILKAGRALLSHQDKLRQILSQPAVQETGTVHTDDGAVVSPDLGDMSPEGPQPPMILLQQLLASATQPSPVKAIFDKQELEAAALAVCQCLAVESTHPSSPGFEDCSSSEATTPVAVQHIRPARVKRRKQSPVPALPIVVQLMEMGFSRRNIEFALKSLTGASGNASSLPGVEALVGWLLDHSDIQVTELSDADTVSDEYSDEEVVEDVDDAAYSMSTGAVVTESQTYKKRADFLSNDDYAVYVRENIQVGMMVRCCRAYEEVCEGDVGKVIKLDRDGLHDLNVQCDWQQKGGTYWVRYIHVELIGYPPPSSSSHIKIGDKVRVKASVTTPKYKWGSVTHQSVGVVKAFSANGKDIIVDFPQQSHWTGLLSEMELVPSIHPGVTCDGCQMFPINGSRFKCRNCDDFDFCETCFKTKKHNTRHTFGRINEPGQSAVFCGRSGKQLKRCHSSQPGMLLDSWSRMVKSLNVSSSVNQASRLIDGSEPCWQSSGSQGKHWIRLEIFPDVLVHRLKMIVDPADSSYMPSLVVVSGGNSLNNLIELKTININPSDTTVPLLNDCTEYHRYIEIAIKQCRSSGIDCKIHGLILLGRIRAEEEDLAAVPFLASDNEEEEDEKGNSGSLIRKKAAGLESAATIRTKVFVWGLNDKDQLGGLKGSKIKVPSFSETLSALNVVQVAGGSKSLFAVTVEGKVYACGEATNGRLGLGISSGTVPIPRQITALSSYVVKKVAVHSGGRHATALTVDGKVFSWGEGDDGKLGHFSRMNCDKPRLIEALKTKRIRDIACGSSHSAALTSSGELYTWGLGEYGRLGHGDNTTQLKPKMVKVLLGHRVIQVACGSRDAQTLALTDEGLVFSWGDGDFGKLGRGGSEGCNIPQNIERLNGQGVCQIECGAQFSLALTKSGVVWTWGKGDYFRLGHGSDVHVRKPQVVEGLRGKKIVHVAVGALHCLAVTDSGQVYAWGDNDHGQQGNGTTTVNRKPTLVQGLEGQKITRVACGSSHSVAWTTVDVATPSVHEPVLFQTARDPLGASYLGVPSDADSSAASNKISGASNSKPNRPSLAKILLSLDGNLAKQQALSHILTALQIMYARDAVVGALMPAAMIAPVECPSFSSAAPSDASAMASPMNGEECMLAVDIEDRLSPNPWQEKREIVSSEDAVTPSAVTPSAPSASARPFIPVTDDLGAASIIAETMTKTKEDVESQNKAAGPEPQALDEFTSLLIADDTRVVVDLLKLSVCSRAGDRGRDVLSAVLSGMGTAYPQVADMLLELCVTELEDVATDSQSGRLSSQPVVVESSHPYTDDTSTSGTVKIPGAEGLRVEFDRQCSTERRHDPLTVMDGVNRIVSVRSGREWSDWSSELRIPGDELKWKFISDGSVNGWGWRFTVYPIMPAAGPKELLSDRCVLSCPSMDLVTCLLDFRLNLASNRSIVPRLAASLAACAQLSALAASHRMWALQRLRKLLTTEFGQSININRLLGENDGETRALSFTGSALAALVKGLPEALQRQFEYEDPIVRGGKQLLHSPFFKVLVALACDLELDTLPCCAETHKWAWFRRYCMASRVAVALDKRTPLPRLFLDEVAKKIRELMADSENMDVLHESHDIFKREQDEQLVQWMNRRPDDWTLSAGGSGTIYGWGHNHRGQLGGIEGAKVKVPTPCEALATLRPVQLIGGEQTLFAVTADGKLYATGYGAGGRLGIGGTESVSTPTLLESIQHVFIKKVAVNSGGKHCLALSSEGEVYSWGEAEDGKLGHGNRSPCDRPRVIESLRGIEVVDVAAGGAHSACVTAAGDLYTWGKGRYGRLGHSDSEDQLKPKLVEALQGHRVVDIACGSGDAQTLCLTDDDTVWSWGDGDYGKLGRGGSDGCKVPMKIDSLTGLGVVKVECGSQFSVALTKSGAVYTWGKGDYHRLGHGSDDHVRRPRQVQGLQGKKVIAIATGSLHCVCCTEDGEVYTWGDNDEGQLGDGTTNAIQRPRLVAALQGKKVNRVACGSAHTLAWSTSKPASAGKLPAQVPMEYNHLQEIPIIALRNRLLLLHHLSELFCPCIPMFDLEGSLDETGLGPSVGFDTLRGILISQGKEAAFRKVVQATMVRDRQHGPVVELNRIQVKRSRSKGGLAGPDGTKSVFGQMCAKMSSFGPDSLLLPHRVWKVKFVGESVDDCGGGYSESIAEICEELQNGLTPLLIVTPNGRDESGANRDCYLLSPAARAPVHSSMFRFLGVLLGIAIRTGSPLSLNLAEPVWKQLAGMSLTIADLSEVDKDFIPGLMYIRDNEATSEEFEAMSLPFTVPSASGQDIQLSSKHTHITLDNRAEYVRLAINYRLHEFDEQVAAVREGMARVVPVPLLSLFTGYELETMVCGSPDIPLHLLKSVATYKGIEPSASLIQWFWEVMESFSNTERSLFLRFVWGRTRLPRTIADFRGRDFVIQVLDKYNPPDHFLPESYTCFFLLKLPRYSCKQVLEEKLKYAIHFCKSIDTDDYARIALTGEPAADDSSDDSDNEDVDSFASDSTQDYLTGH
UniProt O95319: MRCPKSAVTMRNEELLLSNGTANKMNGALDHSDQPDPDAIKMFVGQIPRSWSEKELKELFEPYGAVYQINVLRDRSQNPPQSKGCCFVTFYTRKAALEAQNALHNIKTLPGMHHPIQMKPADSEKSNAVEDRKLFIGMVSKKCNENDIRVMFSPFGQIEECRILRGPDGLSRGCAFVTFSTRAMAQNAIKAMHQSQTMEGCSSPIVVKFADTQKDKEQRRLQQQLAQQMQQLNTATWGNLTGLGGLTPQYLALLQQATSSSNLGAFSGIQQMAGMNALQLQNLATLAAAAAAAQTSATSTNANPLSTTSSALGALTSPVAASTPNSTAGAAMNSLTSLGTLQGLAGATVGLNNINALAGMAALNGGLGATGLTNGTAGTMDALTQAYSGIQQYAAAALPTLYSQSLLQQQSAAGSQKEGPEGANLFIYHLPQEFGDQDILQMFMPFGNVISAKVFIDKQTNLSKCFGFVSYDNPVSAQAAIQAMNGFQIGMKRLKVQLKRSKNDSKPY
UniProt P07737, whole entry, looked up: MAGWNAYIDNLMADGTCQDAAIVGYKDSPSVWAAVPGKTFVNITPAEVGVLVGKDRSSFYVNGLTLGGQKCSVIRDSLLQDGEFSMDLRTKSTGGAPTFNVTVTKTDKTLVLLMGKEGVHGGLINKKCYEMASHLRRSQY

Each target was assayed with COC(=O)/C=C/c1ccccc1 [methyl cinnamate] (assay: log2 ratio of iodoacetamide-alkyne labeling of the cysteine site, DMSO over compound (competition); higher = stronger covalent engagement of the cysteine by the compound, active = 1 or more). Details: 500 µM; treatment time 1 h; system: HEK293T cell lysate.
Outline: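 HEK293T lysate at 2 mg/mL was treated with vehicle or electrophile (500 µM) for 1 h at ambient temperature, then labelled with iodoacetamide alkyne (1 h), clicked to sCIP-TMT reagents, pooled, digested with trypsin overnight at 37 °C, enriched on streptavidin and eluted with acid. Peptides were analysed by Orbitrap Eclipse LC-MS/MS with FAIMS and quantified in FragPipe, using duplicate channels and three replicates, with cysteines quantified in only one replicate excluded. The log2 competition ratio for each cysteine is the mean control-channel reporter intensity divided by the mean compound-channel reporter intensity.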

log2 ratio of iodoacetamide-alkyne labeling, inactive:
ALDOA C202 (UniProt P04075) 0.17, FGFR1OP C244 (UniProt O95684) -0.0289, ZWINT C54 (UniProt O95229) 0.205, PPP1R3D C26 (UniProt O95685) 0.254, SSB C245 (UniProt P05455) 0.0721, ALDOA C73 (UniProt P04075) -0.00633, UniProt O95758_C68 -0.0318, ENO1 C389 (UniProt P06733) -0.0554, NFAT5 C217 (UniProt O94916) 0.295, LMNA C522 (UniProt P02545) 0.253, SOGA1 C267 (UniProt O94964) 0.0286, IPO7 C757 (UniProt O95373) 0.0599, PCCA C155 (UniProt P05165) 0.219, LDHA C131 (UniProt P00338) -0.0391, SVIL C671 (UniProt O95425) 0.479, PRPF6 C429 (UniProt O94906) 0.445, HERC2 C2726 (UniProt O95714) 0.042, ALDOA C178 (UniProt P04075) 0.206, MTA2 C209 (UniProt O94776) -0.0402, EPRS C359 (UniProt P07814) 0.0567, UniProt O95319_C174 0.0609, PFN1 C128 (UniProt P07737) 0.206
